Test results published in article PMC4863141.
No constants are given. Whether binding was seen depends on the method and setting. In cells and extracts the contact can be indirect. Some results given as binding are weak or reduced against the parent protein; the word gives no strength.

Protein sequences, listed by entry. Tags and fused reporters are not part of them.
UniProt Q02248: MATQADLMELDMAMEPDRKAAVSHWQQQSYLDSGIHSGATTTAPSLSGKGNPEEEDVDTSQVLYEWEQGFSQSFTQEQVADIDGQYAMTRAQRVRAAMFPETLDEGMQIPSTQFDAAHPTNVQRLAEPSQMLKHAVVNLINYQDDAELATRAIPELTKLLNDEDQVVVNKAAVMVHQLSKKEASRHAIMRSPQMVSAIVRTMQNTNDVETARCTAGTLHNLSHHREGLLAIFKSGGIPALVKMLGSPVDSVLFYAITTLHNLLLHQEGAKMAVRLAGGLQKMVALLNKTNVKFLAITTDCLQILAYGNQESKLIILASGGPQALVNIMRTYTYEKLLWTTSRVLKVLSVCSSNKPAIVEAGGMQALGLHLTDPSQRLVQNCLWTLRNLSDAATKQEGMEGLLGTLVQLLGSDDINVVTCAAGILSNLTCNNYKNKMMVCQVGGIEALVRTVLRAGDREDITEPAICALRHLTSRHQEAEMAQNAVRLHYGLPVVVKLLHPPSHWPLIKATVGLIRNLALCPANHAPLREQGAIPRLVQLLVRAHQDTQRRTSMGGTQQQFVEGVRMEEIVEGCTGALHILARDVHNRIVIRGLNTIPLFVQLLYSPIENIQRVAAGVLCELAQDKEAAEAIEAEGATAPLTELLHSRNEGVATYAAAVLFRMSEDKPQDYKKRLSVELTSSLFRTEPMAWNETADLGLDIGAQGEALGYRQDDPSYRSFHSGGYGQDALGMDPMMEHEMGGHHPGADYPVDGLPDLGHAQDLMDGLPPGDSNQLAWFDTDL

How the values were obtained:
[1] = target: T1, retinoic acid receptor gamma (mouse (endogenous in EpiSCs)) (UniProt P18911); assay: co-IP; nuclear extract (200 µg) of EpiSCs cultured in N2B27 without VA, with the RARG agonist CD437 (5.0 nM) and CH (3.0 µM) for 24 hours; anti-RARG antibody at 4°C overnight, Protein G magnetic beads; blot for β-catenin
T1 sequence: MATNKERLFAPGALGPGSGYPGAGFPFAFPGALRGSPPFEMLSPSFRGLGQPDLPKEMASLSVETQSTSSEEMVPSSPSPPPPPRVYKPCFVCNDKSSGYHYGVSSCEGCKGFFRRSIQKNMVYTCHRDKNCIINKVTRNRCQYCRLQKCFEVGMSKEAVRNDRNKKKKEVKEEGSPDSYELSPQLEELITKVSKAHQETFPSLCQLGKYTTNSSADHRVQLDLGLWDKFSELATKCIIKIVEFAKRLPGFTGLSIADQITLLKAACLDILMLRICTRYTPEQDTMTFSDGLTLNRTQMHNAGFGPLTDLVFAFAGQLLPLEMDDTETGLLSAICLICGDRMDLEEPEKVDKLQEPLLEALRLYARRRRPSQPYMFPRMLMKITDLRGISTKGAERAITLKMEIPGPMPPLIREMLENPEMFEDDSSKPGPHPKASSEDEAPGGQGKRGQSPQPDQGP

[2] = target: T1, retinoic acid receptor gamma (mouse (endogenous in EpiSCs)); assay: co-IP; nuclear extract (200 µg) of EpiSCs cultured in N2B27 without VA, without CD437; anti-RARG antibody at 4°C overnight, Protein G magnetic beads; blot for β-catenin

binding [1]: binds | binding [2]: binds weakly
Substance: β-catenin (from UniProt Q02248 1-781)
